Results are given in words; binding and its absence hold for the method and conditions named. Binding seen in cells or lysates may run through a third protein. Some binding calls cover weakened binding; strength is not graded here.
Molecular target: Flag-tagged human Sp100A (human) (UniProt P23497)
Test: co-IP; Flag-Sp100A and HA-PKM2 cotransfected into HEp-2 cells; nuclear and cytosolic proteins immunoprecipitated with anti-Flag antibody, blotted with anti-HA and anti-Flag

By UniProt entry, the sequences of proteins in these tests, tags left out. Where a name states a change or a piece, a line headed by the entry shows the natural chain unless it says otherwise. Chains listed by the source or under a name are the forms on record and can include a tag or linker.
Flag-tagged human Sp100A (P23497, form named): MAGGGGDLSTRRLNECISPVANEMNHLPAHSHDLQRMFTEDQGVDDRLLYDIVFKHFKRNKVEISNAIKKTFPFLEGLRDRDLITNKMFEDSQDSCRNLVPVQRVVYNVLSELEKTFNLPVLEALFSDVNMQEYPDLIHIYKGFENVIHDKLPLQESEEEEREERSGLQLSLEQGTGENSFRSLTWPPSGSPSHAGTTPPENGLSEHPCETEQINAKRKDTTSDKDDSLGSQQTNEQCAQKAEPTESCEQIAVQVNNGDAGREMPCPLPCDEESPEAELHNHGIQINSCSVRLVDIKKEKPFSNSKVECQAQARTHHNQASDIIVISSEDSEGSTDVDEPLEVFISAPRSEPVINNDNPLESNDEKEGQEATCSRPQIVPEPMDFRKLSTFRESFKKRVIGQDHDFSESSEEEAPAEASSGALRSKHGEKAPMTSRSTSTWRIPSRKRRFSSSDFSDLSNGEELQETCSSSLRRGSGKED
UniProt P14618: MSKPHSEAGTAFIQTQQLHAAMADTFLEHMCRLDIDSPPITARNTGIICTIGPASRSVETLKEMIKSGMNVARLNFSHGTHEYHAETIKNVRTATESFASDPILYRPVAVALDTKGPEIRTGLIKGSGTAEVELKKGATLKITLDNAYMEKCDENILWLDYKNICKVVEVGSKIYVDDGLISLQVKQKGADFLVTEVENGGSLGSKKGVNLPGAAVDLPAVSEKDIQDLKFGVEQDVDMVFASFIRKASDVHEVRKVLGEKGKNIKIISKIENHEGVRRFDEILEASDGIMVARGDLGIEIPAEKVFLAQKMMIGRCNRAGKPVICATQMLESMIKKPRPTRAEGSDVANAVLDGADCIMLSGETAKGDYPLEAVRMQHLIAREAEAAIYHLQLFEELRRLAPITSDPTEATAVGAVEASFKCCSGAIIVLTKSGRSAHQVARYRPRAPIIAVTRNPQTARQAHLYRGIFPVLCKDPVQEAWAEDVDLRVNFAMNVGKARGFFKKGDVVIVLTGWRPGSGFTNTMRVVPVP

“HA-tagged human PKM2 (from UniProt P14618 1-531) (enzyme)” was tested, and the binding was “binds”.

— PMC9765618
